From the supplement of paper PMC12067093, “Discovery and optimisation of a covalent ligand for TRIM25 and its application to targeted protein ubiquitination” (Chemical Science, 2025)
The list shows a part of the results.

Compound: CC1Cc2ccccc2N1C(=O)C1CCCN(C1)C(=O)CCl (mixture of isomers) [TRIM25 ligand 11 (diastereomer mixture)]
Experiment: probe-labelled cysteine peptide fold change vs DMSO (competition) (log2 fold change); higher = less target engagement (more negative = stronger competition)
Conditions: THP-1, incubation time: 4 h
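Note: competitive chemoproteomic profiling in live THP-1 cells with an iodoacetamide desthiobiotin (IA-DTB) probe, comparing probe-labelled peptide intensities in compound-treated cells against DMSO-treated controls.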

Target | probe-labelled cysteine peptide fold change (10 µM) | probe-labelled cysteine peptide fold change (50 µM)
NCAPG_Q9BPX3_751_HCLGVFFPVFAYASR (UniProt Q9BPX3) | -0.0331 | 0.114
NAPRT_Q6XQN6_477+484_LCLQQGQLCEPLPSLAESR (UniProt Q6XQN6) | -0.369 | -0.251
NANS_Q9NR45_184_PLNPNFCFLQCTSAYPLQPEDVNLR (UniProt Q9NR45) | 0.0746 | 0.0261
NAA16_Q6N069_221_QICDKLLVEEIK (UniProt Q6N069) | -0.37 | -0.025
NAXD_Q8IW45_261_GERDILSNGQQVLVCSQEGSSR (UniProt Q8IW45) | 0.0581 | 0.131
NASP_P49321_708_KPTDGASSSNCVTDISHLVR (UniProt P49321) | 0.0324 | -0.0746
NADK2_Q4G0N4_193_SEGHLCLPVR (UniProt Q4G0N4) | 0.0735 | -0.133
NACC2_Q96BF6_441_ESEMNVIAADMCTNAR (UniProt Q96BF6) | 0.138 | -0.0939
NAP1L1_P55209_388_DQNPAECK (UniProt P55209) | 0.0469 | 0.435
MYO1F_O00160_856_TEFVSLLCK (UniProt O00160) | 0.0865 | 0.117
NAE1_Q13564_153_LADVLWNSQIPLLICR (UniProt Q13564) | 0.0486 | 0.00569
NCAPG2_Q86XI2_401_STGILGVCK (UniProt Q86XI2) | -0.0524 | -0.123
NAXD_Q8IW45_82_IGVVGGCQEYTGAPYFAAISALK (UniProt Q8IW45) | -0.00453 | 0.0133
MYO6_Q9UM54_1265_CGGIQYLQNAIESR (UniProt Q9UM54) | -0.0799 | -0.0349
NCAPG2_Q86XI2_964_MLECIAR (UniProt Q86XI2) | 0.251 | 0.0831
NARS_O43776_438_LMTDTINEPILLCR (UniProt O43776) | -0.0695 | -0.0731
NBEAL1_Q6ZS30_271_CLTEVVHILLSSNSDQR (UniProt Q6ZS30) | 0.216 | 0.0625
NCAPD3_P42695_824_ASAETPAEEQELLTQVCGDVLSTCEHR (UniProt P42695) | 0.231 | -0.0777
NCALD_P61601_38_DCPSGHLSMEEFKK (UniProt P61601) | 0.162 | -0.121
NAB2_Q15742_499_CPAPGPHPALVEGR (UniProt Q15742) | -0.0488 | -0.139
NCAM2_O15394_232_GEEMTFSCR (UniProt O15394) | -0.0122 | 0.0245
NAGA_P17050_42_CNINCDEDPK (UniProt P17050) | 0.0302 | 0.201

A different layout for part of the listing above:
Target	probe-labelled cysteine peptide fold change (10 µM)	probe-labelled cysteine peptide fold change (50 µM)
NAE1_Q13564_153_LADVLWNSQIPLLICR (UniProt Q13564)	0.0486	0.00569
NCAPG2_Q86XI2_401_STGILGVCK (UniProt Q86XI2)	-0.0524	-0.123

Next results.

Target | probe-labelled cysteine peptide fold change (10 µM) | probe-labelled cysteine peptide fold change (50 µM)
NCAPD3_P42695_361_ILLQHICAK (UniProt P42695) | -0.145 | 0.173
NACC1_Q96RE7_178_VKTEQQESDSVQCMPVAK (UniProt Q96RE7) | -0.28 | -0.426
MYH9_P35579_896_LQLQEQLQAETELCAEAEELR (UniProt P35579) | -0.037 | -0.0679
MYO18A_Q92614_404_ANAPSCDR (UniProt Q92614) | 0.17 | -0.00658
MYO18A_Q92614_1155_AVEELLECLDLEK (UniProt Q92614) | 0.0375 | 0.248
NCAPG2_Q86XI2_776_ECLLSAPR (UniProt Q86XI2) | 0.182 | 0.165
NCDN_Q9UBB6_469_LLLPGWCHLTVEDGPR (UniProt Q9UBB6) | -0.00745 | 0.0051
NCAPH_Q15003_239_CEIDPMFQK (UniProt Q15003) | -0.0904 | -0.17
MYO1G_B0I1T2_655_MTCEYTWPNHLLGSDK (UniProt B0I1T2) | 0.178 | 0.205
NAE1_Q13564_34_LWGDHGQEALESAHVCLINATATGTEILK (UniProt Q13564) | -0.0284 | 0.0385
NCAPH_Q15003_255_TAASFDECSTAGVFLSTLHCQDYR (UniProt Q15003) | -0.0963 | -0.138
NACC1_Q96RE7_178_TEQQESDSVQCMPVAK (UniProt Q96RE7) | -0.0858 | 0.0584
MYO9B_Q13459_1665_ALLCSVCK (UniProt Q13459) | 0.197 | 0.174
NAA16_Q6N069_465_EAEEMCSK (UniProt Q6N069) | -0.103 | -0.0897
NCAPG_Q9BPX3_667_TLHCEGTEINSDDEQESK (UniProt Q9BPX3) | -0.0392 | -0.107
NARS2_Q96I59_359_HCGNIPVFVINYPLTLK (UniProt Q96I59) | 0.183 | 0.367
NCAPH2_Q6IBW4_309_EREGAPEPASCVK (UniProt Q6IBW4) | -0.17 | -0.293
NARS_O43776_342_HLAEYTHVEAECPFLTFDDLLNR (UniProt O43776) | 0.547 | 0.432
NCAPG_Q9BPX3_177_LQDPKDDECPVVNAYATLIENDSNPEVR (UniProt Q9BPX3) | -0.283 | -0.251
NBN_O60934_323_NYCDPQGHPSTGLK (UniProt O60934) | 0.245 | -0.127
NBEAL2_Q6ZNJ1_1491_GQVFSVLTQLGASATLVRPPDCIKR (UniProt Q6ZNJ1) | -0.263 | -0.151
NAB2_Q15742_481_LSPCVPAKPPLAEFEEGLLDR (UniProt Q15742) | -0.264 | -0.523

Some values from the entries so far.
probe-labelled cysteine peptide fold change (50 µM), NCAPH_Q15003_239_CEIDPMFQK (UniProt Q15003) reads -0.17
probe-labelled cysteine peptide fold change (10 µM), NACC1_Q96RE7_178_VKTEQQESDSVQCMPVAK (UniProt Q96RE7) reads -0.28

Continuation:

Target | probe-labelled cysteine peptide fold change (10 µM) | probe-labelled cysteine peptide fold change (50 µM)
NBAS_A2RRP1_1771_LQYYFTLLENCGCADLGNCAIKPETHIR (UniProt A2RRP1) | 0.138 | -0.11
NCBP1_Q09161_477_ILDIVPPTFSALCPANPTCIYK (UniProt Q09161) | 0.0139 | 0.126
MYO6_Q9UM54_63_DVEDNCSLMYLNEATLLHNIK (UniProt Q9UM54) | 0.038 | -0.144
MYH9_P35579_931_CQHLQAEK (UniProt P35579) | 0.0101 | 0.142
MYO9B_Q13459_34_EQAAYHLHIYPQLSTTESQASCR (UniProt Q13459) | 0.244 | 0.35
NCAPH_Q15003_309_APLQQCAEDR (UniProt Q15003) | 0.046 | -0.0569
NAA50_Q9GZZ1_61_LAYFNDIAVGAVCCR (UniProt Q9GZZ1) | 0.0866 | 0.0992
NAPA_P54920_84_HDAATCFVDAGNAFK (UniProt P54920) | 0.0886 | 0.00981
NAPA_P54920_103_ADPQEAINCLMR (UniProt P54920) | 0.0282 | 0.0252
MYO1C_O00159_585_NPIMSQCFDR (UniProt O00159) | 0.0863 | -0.0147
NAPRT_Q6XQN6_48_CPFGGAFALAAGLR (UniProt Q6XQN6) | -0.231 | 0.159
MYO9B_Q13459_62_CYVLVEVK (UniProt Q13459) | -0.165 | -0.0818
NAPA_P54920_66_NWSAAGNAFCQAAQLHLQLQSK (UniProt P54920) | -0.028 | -0.0975
MYO9B_Q13459_34_REQAAYHLHIYPQLSTTESQASCR (UniProt Q13459) | -0.0459 | 0.124
NCAPH_Q15003_397_EPCQVQSCQEEMISLGDGDIR (UniProt Q15003) | -0.125 | -0.425
NARF_Q9UHQ1_192_VLGRPITAHLCTAK (UniProt Q9UHQ1) | -0.127 | -0.262
NAA15_Q9BXJ9_238_GELLLQLCR (UniProt Q9BXJ9) | 0.167 | 0.152
NCAPG_Q9BPX3_177_DDECPVVNAYATLIENDSNPEVR (UniProt Q9BPX3) | -0.316 | -0.473
NAE1_Q13564_483_DDYVHEFCR (UniProt Q13564) | 0.148 | 0.12
NARS_O43776_359_LEDLVCDVVDR (UniProt O43776) | 0.417 | 0.125
NAPRT_Q6XQN6_48_CPFGGAFALAAGLRDCVR (UniProt Q6XQN6) | -0.259 | -0.0388
NANS_Q9NR45_19_WVGGQHPCFIIAEIGQNHQGDLDVAKR (UniProt Q9NR45) | -0.0562 | 0.00986

Target | probe-labelled cysteine peptide fold change (10 µM) | probe-labelled cysteine peptide fold change (50 µM)
MYO6_Q9UM54_362_VVAGVLHLGNIDFEEAGSTSGGCNLK (UniProt Q9UM54) | 0.0603 | -0.0543
NAP1L1_P55209_88_CAQIEAK (UniProt P55209) | -0.119 | 0.00995
NADSYN1_Q6IA69_416_ILTTCYMASK (UniProt Q6IA69) | -0.201 | -0.3
NBEAL2_Q6ZNJ1_1661_CSWLVPLVR (UniProt Q6ZNJ1) | -0.161 | 0.226
NAT10_Q9H0A0_105_YCYYNETHK (UniProt Q9H0A0) | 0.0185 | 0.0915
NAGA_P17050_38+42_CNINCDEDPK (UniProt P17050) | 0.0557 | 0.172
MYOF_Q9NZM1_1392_KPVVGQCTIER (UniProt Q9NZM1) | -0.157 | -0.0509
MYO1F_O00160_807_GQVCEVLK (UniProt O00160) | 0.0875 | 0.0884
NCALD_P61601_38_DCPSGHLSMEEFK (UniProt P61601) | 0.262 | -0.0472
MYO18A_Q92614_1155_RAVEELLECLDLEK (UniProt Q92614) | 0.0734 | 0.124
NAT10_Q9H0A0_194_FILSLASCK (UniProt Q9H0A0) | 0.0363 | 0.0704
NAT1_P18440_233_SFCSLQTPDGVHCLVGFTLTHR (UniProt P18440) | -0.122 | -0.0243
NAP1L4_Q99733_77_CAHIEAK (UniProt Q99733) | -0.0897 | -0.0549
NBR1_Q14596_433_DVLVPCLK (UniProt Q14596) | 0.00609 | 0.0287
NASP_P49321_84_KYGETANECGEAFFFYGK (UniProt P49321) | -0.0738 | -0.0259
NCBP1_Q09161_231_PHPQEEYLDCLWAQIQK (UniProt Q09161) | 0.138 | 0.188
MYO19_Q96H55_826_MACLAAK (UniProt Q96H55) | -0.113 | 0.0354
NARS_O43776_452_CPEDSR (UniProt O43776) | -0.0178 | 0.016
MYO18A_Q92614_508_TTSCQHLVQYLATIAGISGNK (UniProt Q92614) | 0.0219 | 0.0521
